Paper PMC10218007, “Potential Clinically Relevant Effects of Sialylation on Human Serum AAG-Drug Interactions Assessed by Isothermal Titration Calorimetry: Insight into Pharmacoglycomics?” (International Journal of Molecular Sciences, 2023)

Amino acid sequences for entries named in this document (tags omitted). Residues count along the entry.
UniProt P02763, 19-201: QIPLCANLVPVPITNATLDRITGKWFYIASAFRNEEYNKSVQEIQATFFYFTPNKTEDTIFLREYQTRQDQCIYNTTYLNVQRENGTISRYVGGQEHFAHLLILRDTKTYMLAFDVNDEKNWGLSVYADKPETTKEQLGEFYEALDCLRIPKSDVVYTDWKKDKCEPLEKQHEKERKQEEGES

Assays:
AAG + s or AAG − s = conditions: calculated, AAG only, no HSA
From the text: AAG is an acute-phase protein with variable concentration in plasma and this consequently affects the free drug concentration. Hyperquad simulation and speciation software (HySS 4.0.31) was used to calculate the fraction of free vs. bound drug by solving the mass balance equations using the measured binding affinities. […] The plasma concentrations of the drug vary over time depending on the dosing regimen, and steady–state concentrations were used in the model.
In addition to AAG, human serum albumin (HSA) also plays a critical role in drug binding due to its high plasma concentration. Therefore, to obtain more realistic estimates, the free drug concentration was calculated taking into account the available data on the binding of the studied drugs to HSA.

[1] = usual therapeutic peak plasma level; ref 46 lidocaine, 47 diltiazem, 48 clindamycin, 49 warfarin; cited from earlier work
[2] = target: Desialylated human AAG (AAG − s) (Homo sapiens, UniProt P02763); experiment: ITC titration of desialylated AAG (AAG − s) with drugs; type: binding; conditions: 310 K
Procedure: (§1) All chemicals were used without further purification. Immobilized SialEXO® (derived from Akkermansia muciniphilla and expressed in E. Coli) was obtained from Smart Enzymes™ Genovis (Lund, Sweden), and HEPES buffer was obtained from VWR International (Leuven, Belgium). All other reagents were of analytical grade or better. All solutions were prepared immediately before the experiments in order to minimize contamination and/or impair the stability of solutions. The solutions for microcalorimetric titrations were prepared in 25 mM HEPES at pH 7.40 containing 150 mM NaCl (Kemika, Zagreb, Croatia), using doubly distilled water and 5 M NaOH (Kemika, Zagreb, Croatia) for adjusting the pH value. AAG and drug solutions were prepared by dissolving the appropriate amount of solid in the given solvent.
(§2) The ITC titrations were performed on a MicroCal PEAQ–ITC calorimeter (Malvern Panalytical Ltd., Malvern, UK). The solutions were thoroughly degassed beforehand, under vacuum to avoid any formation of bubbles that might be present in the sample cell. All microcalorimetric measurements were performed at 37 °C. […]
(§3) All ITC data were analyzed with MicroCal PEAQ-ITC Analysis Software 1.30 using the One Set Sites Fitting Model. […] All p values were calculated using the t-test() function in Microsoft Excel (Microsoft Corporation, Redmond, WA, USA).

AAG+s = conditions: log Ka = log (1/KD), KD in M; ref (2) lidocaine, (3) warfarin, (4) clindamycin; cited from earlier work
[3] = target: Native human AAG (AAG + s) (Homo sapiens, UniProt P02763); experiment: ITC titration of native AAG (AAG + s) with drugs; type: binding; conditions: 310 K
Procedure: as §1, §2, §3

For `CCN(CC)CC(=O)Nc1c(C)cccc1C` [Lidocaine, lidocaine], the “Decrease of free plasma concentration with AAG − s vs AAG + s” value (AAG + s or AAG − s) is given as 20–30%, the Cmax [1] is given as 21.3 µM and the “N (number of drug binding sites), AAG − s” value [2] is given as 0.818 ± 0.226. The “Δr S°, AAG − s” value [2] was 15.9 ± 3.17 J K^−1 mol^−1, the “Reference AAG+s log KA” value (AAG+s) was 5.18 and the “N (number of drug binding sites), AAG + s” value [3] was 0.810 ± 0.0990. The “Δr S°, AAG + s” value [3] was 0.725 ± 1.53 J K^−1 mol^−1.
